Measurements as given in article PMC5603829.
Results are given in words; binding and its absence hold for the method and conditions named. Binding seen in cells or lysates may run through a third protein. Some results given as binding are weak or reduced against the parent protein; the word gives no strength.

Amino acid sequences for entries named in this document (tags omitted).
UniProt Q09472: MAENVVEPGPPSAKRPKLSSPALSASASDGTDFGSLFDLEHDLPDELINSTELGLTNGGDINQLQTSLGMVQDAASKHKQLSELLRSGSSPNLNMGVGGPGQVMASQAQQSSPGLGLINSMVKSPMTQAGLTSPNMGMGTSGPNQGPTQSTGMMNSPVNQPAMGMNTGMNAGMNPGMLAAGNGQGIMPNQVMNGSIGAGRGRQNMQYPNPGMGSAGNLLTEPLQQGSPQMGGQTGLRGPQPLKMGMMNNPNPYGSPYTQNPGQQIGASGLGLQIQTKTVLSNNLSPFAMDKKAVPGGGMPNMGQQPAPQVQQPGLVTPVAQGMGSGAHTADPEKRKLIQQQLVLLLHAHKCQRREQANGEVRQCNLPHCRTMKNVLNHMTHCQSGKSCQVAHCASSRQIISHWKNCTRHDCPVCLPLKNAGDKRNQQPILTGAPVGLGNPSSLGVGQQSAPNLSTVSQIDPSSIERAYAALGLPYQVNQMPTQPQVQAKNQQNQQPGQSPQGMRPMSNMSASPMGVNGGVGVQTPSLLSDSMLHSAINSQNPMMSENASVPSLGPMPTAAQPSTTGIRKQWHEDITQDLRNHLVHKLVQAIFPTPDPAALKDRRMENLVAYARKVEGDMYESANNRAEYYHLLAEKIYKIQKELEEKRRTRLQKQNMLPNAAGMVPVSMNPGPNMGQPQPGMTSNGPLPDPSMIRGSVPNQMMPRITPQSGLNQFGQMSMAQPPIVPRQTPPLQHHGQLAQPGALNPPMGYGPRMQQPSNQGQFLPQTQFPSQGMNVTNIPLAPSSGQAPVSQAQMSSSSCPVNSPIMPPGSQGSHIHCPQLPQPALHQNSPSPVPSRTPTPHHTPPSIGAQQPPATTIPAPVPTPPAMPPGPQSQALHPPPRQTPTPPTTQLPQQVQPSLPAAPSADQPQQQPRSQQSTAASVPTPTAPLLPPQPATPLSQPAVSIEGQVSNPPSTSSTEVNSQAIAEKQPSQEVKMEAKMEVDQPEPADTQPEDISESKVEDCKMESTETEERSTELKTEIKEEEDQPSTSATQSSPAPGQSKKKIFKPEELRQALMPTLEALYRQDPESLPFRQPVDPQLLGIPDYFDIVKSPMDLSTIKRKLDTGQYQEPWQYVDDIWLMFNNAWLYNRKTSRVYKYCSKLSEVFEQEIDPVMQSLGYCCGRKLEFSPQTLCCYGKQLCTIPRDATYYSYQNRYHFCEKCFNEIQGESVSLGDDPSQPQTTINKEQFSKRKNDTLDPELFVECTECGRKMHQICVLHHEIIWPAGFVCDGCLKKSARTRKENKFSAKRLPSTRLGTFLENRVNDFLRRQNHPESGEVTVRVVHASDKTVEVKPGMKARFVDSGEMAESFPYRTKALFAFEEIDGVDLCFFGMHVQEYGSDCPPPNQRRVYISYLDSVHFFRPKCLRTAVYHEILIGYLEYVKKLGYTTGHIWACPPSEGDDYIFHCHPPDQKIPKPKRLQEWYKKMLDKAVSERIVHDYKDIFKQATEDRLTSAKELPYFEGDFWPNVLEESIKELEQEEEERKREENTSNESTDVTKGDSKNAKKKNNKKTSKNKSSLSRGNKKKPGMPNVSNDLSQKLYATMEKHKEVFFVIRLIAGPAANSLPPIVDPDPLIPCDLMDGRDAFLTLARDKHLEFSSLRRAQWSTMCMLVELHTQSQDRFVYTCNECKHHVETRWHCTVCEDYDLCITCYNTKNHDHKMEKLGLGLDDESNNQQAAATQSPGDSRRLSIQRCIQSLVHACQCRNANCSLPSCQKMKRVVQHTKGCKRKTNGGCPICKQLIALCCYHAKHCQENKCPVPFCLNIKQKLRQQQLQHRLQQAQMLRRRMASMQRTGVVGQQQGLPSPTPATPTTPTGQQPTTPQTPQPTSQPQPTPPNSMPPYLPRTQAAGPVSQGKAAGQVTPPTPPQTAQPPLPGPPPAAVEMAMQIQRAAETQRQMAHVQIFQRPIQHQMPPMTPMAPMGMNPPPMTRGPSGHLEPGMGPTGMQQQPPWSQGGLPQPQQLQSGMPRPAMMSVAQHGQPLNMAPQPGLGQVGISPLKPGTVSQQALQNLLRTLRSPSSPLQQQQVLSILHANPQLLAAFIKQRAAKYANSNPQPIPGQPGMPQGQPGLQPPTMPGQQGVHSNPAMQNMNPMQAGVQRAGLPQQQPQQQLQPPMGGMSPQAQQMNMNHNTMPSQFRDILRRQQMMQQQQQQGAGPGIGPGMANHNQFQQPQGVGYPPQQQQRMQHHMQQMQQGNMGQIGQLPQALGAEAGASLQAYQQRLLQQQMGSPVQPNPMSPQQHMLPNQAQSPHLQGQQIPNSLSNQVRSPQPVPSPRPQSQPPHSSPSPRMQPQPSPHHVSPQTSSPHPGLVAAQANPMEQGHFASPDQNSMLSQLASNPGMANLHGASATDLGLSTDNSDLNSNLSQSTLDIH
UniProt P49407: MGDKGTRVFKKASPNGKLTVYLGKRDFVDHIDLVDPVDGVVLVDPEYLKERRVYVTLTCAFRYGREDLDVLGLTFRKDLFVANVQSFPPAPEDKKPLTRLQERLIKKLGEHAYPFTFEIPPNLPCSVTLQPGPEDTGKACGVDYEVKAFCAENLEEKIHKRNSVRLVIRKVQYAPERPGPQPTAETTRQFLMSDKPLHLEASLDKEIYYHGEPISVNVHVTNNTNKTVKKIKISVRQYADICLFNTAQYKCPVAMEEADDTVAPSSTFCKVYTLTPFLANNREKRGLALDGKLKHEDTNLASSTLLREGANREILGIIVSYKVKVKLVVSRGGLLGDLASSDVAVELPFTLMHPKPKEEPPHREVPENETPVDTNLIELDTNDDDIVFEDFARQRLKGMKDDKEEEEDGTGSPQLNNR

Molecular target: P300 (human (endogenous in Reh)) (UniProt Q09472)
Experiment: co-IP; protein extracted from Reh cells infected with scrambled shRNA (R-Scram) or Si-β-Arrestin1 (R-Siβ1) lentivirus; for P300 with Sp1 also Reh cells transfected with shRNA-P300; which protein was precipitated is not told

For β-Arrestin1 (from UniProt P49407 1-418), the binding was “binds”.
